In the supplement of paper PMC9549374:
The list shows a part of the results. Rule as the data show it: active = 2-fold of DMSO or more and inactive = the rest. Single values of this set are uncertain. Some low values are a fixed figure set by the source, not a measured ratio.

test system: CM7/1-hgem mouse ES cell-derived cardiomyocytes; experiment: maximal number of mAG-hGem(1/110)-positive cardiomyocytes over 96 h, fold-change vs DMSO; higher = more cardiomyocyte cell cycle activity; conditions: 1 µM; 96 (max over 12 h time points) h

Row | Compound | maximal number
1 | COc1ccc2[nH]c([S@@+]([O-])Cc3ncc(C)c(OC)c3C)nc2c1 | inactive: 1
2 | CC1(C)C(=O)C=C[C@]2(C)[C@H]3CC[C@@]4(C)[C@H](c5ccoc5)OC(=O)[C@H]5O[C@]54[C@]3(C)C(=O)C[C@@H]12 | inactive: 1
3 | COc1ccc(-c2oc3cc(O[C@@H]4O[C@H](CO)[C@@H](O)[C@H](O)[C@H]4O)c(OC)c(O)c3c(=O)c2OC)cc1O | inactive: 1
4 | O=c1c(O)c(-c2ccc(O)cc2O)oc2cc(O)cc(O)c12 | inactive: 1
5 | COc1ccc(C[C@H](N)C(=O)N[C@H]2[C@@H](O)[C@H](n3cnc4c(N(C)C)ncnc43)O[C@@H]2CO)cc1 | inactive: 1
6 | O=C(c1cccnc1)N1CCOCC1 | inactive: 1
7 | C=CCCCCCCCCCCCC(O)CC(O)COC(C)=O (centres undefined) | inactive: 0
8 | COc1ccc(-c2c(O)c3c(OC)c4c(cc3oc2=O)OC(C)(C)C=C4)cc1 | inactive: 1
9 | C[C@]12CC[C@@H]3c4ccc(O)cc4CC[C@H]3[C@@H]1C[C@H](O)[C@@H]2O | inactive: 1
10 | CCCCCC1C(=O)CCC1CC(=O)O (centres undefined) | inactive: 1
11 | COc1cc(/C=C/C(=O)O)ccc1O | active: 2
12 | CC(=O)O[C@H]1C[C@@H](OC(C)=O)C(C)(C)C2CC(=O)[C@]3(C)C(CC[C@@]4(C)[C@H](C(=O)O)OC(=O)C5OC543)[C@]21C (some centres undefined) | inactive: 1
13 | C=C(C)[C@@H]1CC=C(C(=O)O)CC1 | inactive: 1
14 | CC1=CC(=O)CC(C)(C)C1(O)/C=C/C(C)=C\C(=O)O (mixture of isomers) [ABSCISIC ACID (cis,trans; +/-)] | inactive: 0.5

Random excerpt: 2 entries already listed
Row | Compound | maximal number
7 | C=CCCCCCCCCCCCC(O)CC(O)COC(C)=O (centres undefined) | inactive: 0
13 | C=C(C)[C@@H]1CC=C(C(=O)O)CC1 | inactive: 1
